For 1 molecule, binding results are on record in patent publication US20200299373A1.

Results are given in words; binding and its absence hold for the method and conditions named. Some binding calls cover weakened binding; strength is not graded here.

For the test, the target named is T1, F2-11-BSA (human).
T1 sequence (peptide, conjugated to BSA): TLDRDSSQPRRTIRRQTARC
As to the kind of experiment: ELISA on coated BSA-conjugated mutant F2 peptide (FIG. 3C).

B1: anti-FAM19A5 antibody 1-28 (antibody, V domains shown)
VH: AVTLDESGGGLQTPGGALSLVCKASGFDFSDYGMGWVRQAPGKGLEWVAAIRSDGSNPSYGSAVKGRATISKDNGRSTVRLQLNNLRAEDTATYYCAKDGNGYCALDAYRSGGYSCGVYPGSIDAWGHGTEVIVSS
VL: ALTQPSSVSANLEGTVEITCSGSGYGYGWYQQKSPGSAPVTVIYQNDKRPSDIPSRFSGSKSGSTGTLTITGVQVEDEAVYYCGSEDSSTLAGIFGAGTTLTVL
Take B1: the binding entry is recorded as “binds”.
